{"source": "paper PMC7819943", "about": "“Rice protein-binding microarrays: a tool to detect cis-acting elements near promoter regions in rice”", "note": "The other results are listed elsewhere or left out.", "data": [{"molecular_target": "T1, OsSMF1 (Oryza sativa, UniProt Q6ZLB0 1-436)", "T1 sequence": "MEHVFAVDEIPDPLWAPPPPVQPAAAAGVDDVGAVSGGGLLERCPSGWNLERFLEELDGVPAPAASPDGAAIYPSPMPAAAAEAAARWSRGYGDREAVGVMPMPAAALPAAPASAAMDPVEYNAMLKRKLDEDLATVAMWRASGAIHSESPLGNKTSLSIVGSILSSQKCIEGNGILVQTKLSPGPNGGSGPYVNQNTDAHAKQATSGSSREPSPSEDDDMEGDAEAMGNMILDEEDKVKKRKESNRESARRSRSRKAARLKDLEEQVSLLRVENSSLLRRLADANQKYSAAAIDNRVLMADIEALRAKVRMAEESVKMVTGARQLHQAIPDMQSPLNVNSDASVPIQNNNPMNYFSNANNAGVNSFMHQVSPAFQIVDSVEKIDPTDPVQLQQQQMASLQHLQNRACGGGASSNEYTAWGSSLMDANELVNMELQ", "test": "protein-binding microarray (RPBM); PBS, 2% BSA, 51.3 ng/ul salmon testes DNA, 50 uM zinc acetate, 200 nM TF, 25 C, 1 h; high values mean tight binding", "conditions": "protein: recombinant; tags: N-terminal polyhistidine and DsRed monomer fusion (pET32a); chain copies: 2; label: CyDye5-dUTP incorporated in the synthesized complementary strand; 3' TTTTT single-stranded linker to array surface; dsDNA, one strand shown", "how_it_was_run": "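Using Ni–NTA, transcription factors fused N-terminally to polyhistidine and DsRed were purified after expression in E. coli BL21-CodonPlus. These were incubated at 200 nM with a blocked, double-stranded custom Agilent array for 1 h at 25 °C in a buffer containing 50 µM zinc acetate, and the array was washed. The binding signal is per-feature fluorescence intensity (arbitrary units) on an Axon 4000B scanner.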", "values": [{"sequence": "TGACTCTGCCGTGTGAGTGCTGACGCAATCAAGATCCAACCGGAGTCACCTAGTGCAG", "binding signal": "6980 fluorescence intensity (a.u.)"}, {"sequence": "AGCTAATGAGCTAAACGCCCAGTCATTCAACACCGACCATCGGAGTCACCTAGTGCAG", "binding signal": "4740 fluorescence intensity (a.u.)"}, {"sequence": "ACTGCTGCTATGGAAGCCTGTGACTCAGTTTGTGATATTCCGGAGTCACCTAGTGCAG", "binding signal": "6680 fluorescence intensity (a.u.)"}, {"sequence": "TGATAGAGGGGATGAGTTTGGACGTCGGCACTCTAGCGACCGGAGTCACCTAGTGCAG", "binding signal": "3290 fluorescence intensity (a.u.)"}, {"sequence": "GAAGAAAGGCCTATAGAAGTCCTATGGGTTCCACACCTTGCGGAGTCACCTAGTGCAG", "binding signal": "3340 fluorescence intensity (a.u.)"}, {"sequence": "CATGCAAACCAACTACAAAATGATGTATTGTGACTAATATCGGAGTCACCTAGTGCAG", "binding signal": "3470 fluorescence intensity (a.u.)"}, {"sequence": "GATCTACCCATGAACGACACATCACGGATACATCGGAATACGGAGTCACCTAGTGCAG", "binding signal": "4340 fluorescence intensity (a.u.)"}, {"sequence": "ACGAAGCACCAACACTGGATACGCGTCAGGTAGGTGACAGCGGAGTCACCTAGTGCAG", "binding signal": "3180 fluorescence intensity (a.u.)"}, {"sequence": "CTACCGGAATCTGGAACCCTCCACGTCATCGCCACCGCGGCGGAGTCACCTAGTGCAG", "binding signal": "9780 fluorescence intensity (a.u.)"}, {"sequence": "TAGTGTCGCGTCACACTGTCTGCTGTTCGTCGCGCTCTAACGGAGTCACCTAGTGCAG", "binding signal": "7240 fluorescence intensity (a.u.)"}, {"sequence": "TGCCGTCCACGCCATTCGCGACCAGCCACCGTCCTCGCCTCGGAGTCACCTAGTGCAG", "binding signal": "5070 fluorescence intensity (a.u.)"}, {"sequence": "ATTATCGATGCATGTGAGGATGACTTGGCATACTCACGAACGGAGTCACCTAGTGCAG", "binding signal": "9880 fluorescence intensity (a.u.)"}, {"sequence": "CGTACTCCGTAGTCGGACGATCCAGTCATGTGTGTAGCATCGGAGTCACCTAGTGCAG", "binding signal": "4540 fluorescence intensity (a.u.)"}, {"sequence": "GAGTTGAGTTTAGACTTTCTAGAGTGGTATATGTATGTTTCGGAGTCACCTAGTGCAG", "binding signal": "40900 fluorescence intensity (a.u.)"}, {"sequence": "CTTGTATGAGCAAGGTTGCTTGTGGCTCCAGTGATGGTCGCGGAGTCACCTAGTGCAG", "binding signal": "30400 fluorescence intensity (a.u.)"}, {"sequence": "TGGGTTGCTTCTTCCAGCTCAGCCCTTCTTCTAGCACATTCGGAGTCACCTAGTGCAG", "binding signal": "8030 fluorescence intensity (a.u.)"}, {"sequence": "TTGACTACCACGTGGGATTTGCATAAACACATTAGAGCCACGGAGTCACCTAGTGCAG", "binding signal": "6320 fluorescence intensity (a.u.)"}, {"sequence": "ACCCCAATCACTGACGCACCGGGCCCACGTAGCTCGACCCCGGAGTCACCTAGTGCAG", "binding signal": "4950 fluorescence intensity (a.u.)"}, {"sequence": "AAAATTATACAACGCCGTGATGACTTGGAAGTACTTTAGCCGGAGTCACCTAGTGCAG", "binding signal": "4210 fluorescence intensity (a.u.)"}, {"sequence": "CAAGGAGGGAGTTGATGGTGGGATTGATCATGGGAGTTATCGGAGTCACCTAGTGCAG", "binding signal": "3500 fluorescence intensity (a.u.)"}, {"sequence": "TAATTGTATGTTGCCAACCGTACGTGCTCAAAGTCAATTACGGAGTCACCTAGTGCAG", "binding signal": "7810 fluorescence intensity (a.u.)"}, {"sequence": "CTACGAGGTAGAGTTGCAGACACGTCTATAGTAGCCGGACCGGAGTCACCTAGTGCAG", "binding signal": "3780 fluorescence intensity (a.u.)"}, {"sequence": "ATTGGGTTGGTCAAAAGACAGTCACGGTATGAGTGTTGTGCGGAGTCACCTAGTGCAG", "binding signal": "3610 fluorescence intensity (a.u.)"}, {"sequence": "TCCAACGTTTTGGTTTCAATCAGGAGATGACCCGTCAGGACGGAGTCACCTAGTGCAG", "binding signal": "3250 fluorescence intensity (a.u.)"}, {"sequence": "TGGATGACAAGGTGGGCCCACACGAAAGGCGAGTGCGTGTCGGAGTCACCTAGTGCAG", "binding signal": "3430 fluorescence intensity (a.u.)"}, {"sequence": "CAAGTGAGTAATCATAGTCATTGCGAGTAGTGCATTCAGTCGGAGTCACCTAGTGCAG", "binding signal": "3340 fluorescence intensity (a.u.)"}, {"sequence": "CTAGTTTACATCTGCAATGTCATGATTTATTTATGGAATACGGAGTCACCTAGTGCAG", "binding signal": "19500 fluorescence intensity (a.u.)"}, {"sequence": "CCACGCGCCCCTCCACGTGGCTCCTGGCCCACCACCAGATCGGAGTCACCTAGTGCAG", "binding signal": "10600 fluorescence intensity (a.u.)"}, {"sequence": "ACGGGTGTGCCCCACCAGATGTGGGCCACCCTATATTTATCGGAGTCACCTAGTGCAG", "binding signal": "3290 fluorescence intensity (a.u.)"}, {"sequence": "AATGAGACGGAGGGAGTAATTTATTTACTCGTTAGTATATCGGAGTCACCTAGTGCAG", "binding signal": "36100 fluorescence intensity (a.u.)"}, {"sequence": "TCCTGTGCCTCTCTCATGGTGTGGGTGTCTGTGTCTTTGACGGAGTCACCTAGTGCAG", "binding signal": "3350 fluorescence intensity (a.u.)"}, {"sequence": "TCTTATCCGTAACCCTGACAGAGTGGATTACCAGATTATACGGAGTCACCTAGTGCAG", "binding signal": "3470 fluorescence intensity (a.u.)"}, {"sequence": "CAATGGCAGACTGTGCACTGCACCATGAGCTTTTAAATTTCGGAGTCACCTAGTGCAG", "binding signal": "3450 fluorescence intensity (a.u.)"}, {"sequence": "AAATGTCATCTGATCACACCTATTAAAATGATGCGACAAACGGAGTCACCTAGTGCAG", "binding signal": "6280 fluorescence intensity (a.u.)"}, {"sequence": "TCAATTGAAGGTTGAGGATGAGACGTGGAAATTAATTACTCGGAGTCACCTAGTGCAG", "binding signal": "3700 fluorescence intensity (a.u.)"}, {"sequence": "GTTGGTTTCAAGTCTGATGGGAAAATTACAGCCTTGCACCCGGAGTCACCTAGTGCAG", "binding signal": "15100 fluorescence intensity (a.u.)"}, {"sequence": "ACTAGTGACATAAGATCGGCCCCACCTGTCAGTTGCATGGCGGAGTCACCTAGTGCAG", "binding signal": "4260 fluorescence intensity (a.u.)"}, {"sequence": "GAAGTAGTCGTGGCCGAACATGACGCCGCCGGGGCGGAGCCGGAGTCACCTAGTGCAG", "binding signal": "4630 fluorescence intensity (a.u.)"}, {"sequence": "ATATATTTTGGTTGTGTAGTTTCACAAAACCACACTATCGCGGAGTCACCTAGTGCAG", "binding signal": "3470 fluorescence intensity (a.u.)"}, {"sequence": "ATGGATTTGTCACGGATCCAAATTCAGTTAGCCCATTAGGCGGAGTCACCTAGTGCAG", "binding signal": "3330 fluorescence intensity (a.u.)"}, {"sequence": "AGGGGAGGAGAAAGAGGTTGGTGACACATGGGTCCCACTTCGGAGTCACCTAGTGCAG", "binding signal": "6790 fluorescence intensity (a.u.)"}, {"sequence": "GAAGGGGATGACACATCTGCCACTGGCGTGTGGGGTCCCCCGGAGTCACCTAGTGCAG", "binding signal": "5320 fluorescence intensity (a.u.)"}, {"sequence": "TCTTCTCTCGTCAAATTAACAGCCTATCGATGATCGATTACGGAGTCACCTAGTGCAG", "binding signal": "3420 fluorescence intensity (a.u.)"}, {"sequence": "TTGGTCTGTTGGTGGCCGGGGCGCGGGCGCGCTTACCTGTCGGAGTCACCTAGTGCAG", "binding signal": "4300 fluorescence intensity (a.u.)"}, {"sequence": "AAAACAAAGACACGCGCTGTAGTGGACACACGCAAGCAGTCGGAGTCACCTAGTGCAG", "binding signal": "5160 fluorescence intensity (a.u.)"}, {"sequence": "TAGCAGAGATGCTAAAGTAGTAGAGATGACGTCGGGCTTCCGGAGTCACCTAGTGCAG", "binding signal": "5570 fluorescence intensity (a.u.)"}, {"sequence": "CAAATGATTCCACTTGTCATTTGCATATGAGTGATATGTGCGGAGTCACCTAGTGCAG", "binding signal": "3910 fluorescence intensity (a.u.)"}, {"sequence": "CAAAATATGCCTTTCCCGGTGGCTAGACTAACCGCTAGCGCGGAGTCACCTAGTGCAG", "binding signal": "3220 fluorescence intensity (a.u.)"}, {"sequence": "GAGATTTAGGTGACAGAATAAGACGTGGCTGGACGTAAGACGGAGTCACCTAGTGCAG", "binding signal": "3950 fluorescence intensity (a.u.)"}, {"sequence": "CACTGGAAGCGGGGTCACTGCTCATTCAGATAGGTTCAAACGGAGTCACCTAGTGCAG", "binding signal": "34400 fluorescence intensity (a.u.)"}, {"sequence": "GTTAGCGATTGCCAGAGCGCGCGTCACCGCTTGCTGAGGCCGGAGTCACCTAGTGCAG", "binding signal": "7120 fluorescence intensity (a.u.)"}, {"sequence": "GTTACATCAACGTGATGCGTCAGCCTCAGGCTGGGAATCACGGAGTCACCTAGTGCAG", "binding signal": "6140 fluorescence intensity (a.u.)"}, {"sequence": "CACTCTAATAACGTGTCGTGTTCTTCATGCTGAAATGTCTCGGAGTCACCTAGTGCAG", "binding signal": "4330 fluorescence intensity (a.u.)"}, {"sequence": "CTAATCCTTTTGGACATTACGTGGCTGCTATCTGAACCACCGGAGTCACCTAGTGCAG", "binding signal": "10100 fluorescence intensity (a.u.)"}]}]}
